# In PubChem BioAssay (NCATS):
# The inconclusive results got no clear call from the source; some entries with a clear call stand among them for comparison. For part of these data: A potency beside an inconclusive call is a rough fit, not a confirmed value. Active and inactive are the calls of the source. Calls come from the whole dose curve; as a rule, active = well fitted cell-killing curve with a large enough effect; inconclusive = small, poorly fitted or top-dose-only effect, or effect the other way; inactive = no such curve, though single readings can be large or run the other way.
# Columns and labels:
# [1] = Quantitative High-Throughput drug screen in 47 multiple myeloma cell lines against the NCATS MIPE library collection: LP1_DSMZ cell viability assay (AID 1918982); note: nearly all actives have a fitted effect of over 35% in size; note: potency is the fitted concentration of half-maximal effect
# In short: (§1)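 ATP-based CellTiter-Glo luminescence after 48 h drug exposure (37 °C, 5% CO2) of 500 myeloma cells per well. DMSO-only wells set 100% viability, media-only wells 0%; MIPE 4.0 library added by pin tool.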
# [2] = Quantitative High-Throughput drug screen in 47 multiple myeloma cell lines against the NCATS MIPE library collection: KMS28PE_JCRB cell viability assay (AID 1918983); note: nearly all actives have a fitted effect of over 35% in size; note: potency is the fitted concentration of half-maximal effect
# In short: as §1
# [3] = Quantitative High-Throughput drug screen in 47 multiple myeloma cell lines against the NCATS MIPE library collection: KMS34_JCRB cell viability assay (AID 1918985); note: nearly all actives have a fitted effect of over 40% in size; note: potency is the fitted concentration of half-maximal effect
# In short: as §1
# [4] = Quantitative High-Throughput drug screen in 47 multiple myeloma cell lines against the NCATS MIPE library collection: OCIMY7_PLB cell viability assay (AID 1918987); settings: OCI-MY7 myeloma viability, CellTiter-Glo ATP, 48 h; viability (% of DMSO): at 45.8 µM (top of the series); note: nearly all actives have a fitted effect of over 65% in size; note: potency is the fitted concentration of half-maximal effect
# In short: as §1
# [5] = Quantitative High-Throughput drug screen in 47 multiple myeloma cell lines against the NCATS MIPE library collection: OCIMY5_PLB cell viability assay (AID 1918988); note: nearly all actives have a fitted effect of over 65% in size; note: potency is the fitted concentration of half-maximal effect
# In short: as §1
# [6] = Quantitative High-Throughput drug screen in 47 multiple myeloma cell lines against the NCATS MIPE library collection: SKMM1_PLB cell viability assay (AID 1919863); settings: SKMM1 myeloma viability, CellTiter-Glo ATP, 48 h; viability: hits give low values; note: nearly all actives have a fitted effect of over 35% in size; note: potency is the fitted concentration of half-maximal effect
# In short: as §1
# [7] = Quantitative High-Throughput drug screen in 47 multiple myeloma cell lines against the NCATS MIPE library collection: U266_ATCC cell viability assay (AID 1919864); settings: U266 myeloma viability, CellTiter-Glo ATP luminescence, 48 h; viability (% of DMSO control): at 45.8 µM (top of the series); note: nearly all actives have a fitted effect of over 35% in size; note: potency is the fitted concentration of half-maximal effect
# In short: as §1
# [8] = Quantitative High-Throughput drug screen in 47 multiple myeloma cell lines against the NCATS MIPE library collection: XG1_PLB cell viability assay (AID 1919866); settings: CellTiter-Glo ATP, 48 h; viability: at 45.8 µM (top of the series); note: nearly all actives have a fitted effect of over 35% in size; note: potency is the fitted concentration of half-maximal effect
# In short: as §1
# [9] = Quantitative High-Throughput drug screen in 47 multiple myeloma cell lines against the NCATS MIPE library collection: VP6_DJ cell viability assay (AID 1919867); settings: ATP luminescence, 48 h; viability (% of DMSO): at 45.8 µM (top of the series); note: nearly all actives have a fitted effect of over 40% in size; note: potency is the fitted concentration of half-maximal effect
# In short: as §1
# [10] = Quantitative High-Throughput drug screen in 47 multiple myeloma cell lines against the NCATS MIPE library collection: UTMC2_PLB cell viability assay (AID 1919868); settings: CellTiter-Glo ATP luminescence, 48 h; viability (% of DMSO control): at 45.8 µM (top of the series); note: nearly all actives have a fitted effect of over 55% in size; note: potency is the fitted concentration of half-maximal effect
# In short: as §1
# [11] = Quantitative High-Throughput drug screen in 47 multiple myeloma cell lines against the NCATS MIPE library collection: PE2_PLB cell viability assay (AID 1919869); settings: PE2_PLB myeloma cells viability, ATP luminescence, 48 h; viability (% of control): at 45.8 µM (top of the series)
# In short: as §1
# [12] = Quantitative High-Throughput drug screen in 47 multiple myeloma cell lines against the NCATS MIPE library collection: PCM6_Riken cell viability assay (AID 1919870); note: nearly all actives have a fitted effect of over 30% in size; note: potency is the fitted concentration of half-maximal effect
# In short: as §1
# [13] = Quantitative High-Throughput drug screen in 47 multiple myeloma cell lines against the NCATS MIPE library collection: RPMI8226_ATCC cell viability assay (AID 1919871); settings: RPMI8226 myeloma viability, CellTiter-Glo ATP luminescence, 48 h; viability (% of control): at 45.8 µM (top of the series); note: nearly all actives have a fitted effect of over 30% in size; note: potency is the fitted concentration of half-maximal effect
# In short: as §1
# [14] = Quantitative High-Throughput drug screen in 47 multiple myeloma cell lines against the NCATS MIPE library collection: KMS28BM_JCRB cell viability assay (AID 1919874); note: nearly all actives have a fitted effect of over 35% in size; note: potency is the fitted concentration of half-maximal effect
# In short: as §1
# [15] = Quantitative High-Throughput drug screen in 47 multiple myeloma cell lines against the NCATS MIPE library collection: L363_DSMZ cell viability assay (AID 1918984); settings: L363 myeloma viability, CellTiter-Glo ATP luminescence, 48 h; viability (% of control): at 45.8 µM (top of the series); note: potency is the fitted concentration of half-maximal effect; nearly all actives have a fitted effect of over 40% in size
# In short: as §1
# [16] = Quantitative High-Throughput drug screen in 47 multiple myeloma cell lines against the NCATS MIPE library collection: OPM1_PLB cell viability assay (AID 1918989); note: nearly all actives have a fitted effect of over 40% in size; note: potency is the fitted concentration of half-maximal effect
# In short: as §1
# [17] = Quantitative High-Throughput drug screen in 47 multiple myeloma cell lines against the NCATS MIPE library collection: XG6_PLB cell viability assay (AID 1919865); settings: XG6 myeloma viability, CellTiter-Glo ATP luminescence, 48 h; viability (% of control): at 45.8 µM (top of the series)
# In short: as §1
# [18] = Quantitative High-Throughput drug screen in 47 multiple myeloma cell lines against the NCATS MIPE library collection: OPM2_DSMZ cell viability assay (AID 1919872); note: nearly all actives have a fitted effect of over 30% in size
# In short: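 Inhibition of cell viability is measured here. Each line was plated at 500 cells per well, treated with MIPE 4.0 drugs, kept 48 hours at 37C, then assayed for ATP content by CellTiter-Glo luminescence.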
# [19] = Quantitative High-Throughput drug screen in 47 multiple myeloma cell lines against the NCATS MIPE library collection: KMS11_JCRBsus cell viability assay (AID 1919873); note: nearly all actives have a fitted effect of over 50% in size; note: potency is the fitted concentration of half-maximal effect
# In short: as §1
structure (smiles),measurement,setting,value
CN(C)CCN(C)CCc1ccc(Cl)c(Cl)c1,Potency,[1],"inconclusive: 1.3 nM [cytotoxic, full curve, poor fit]"
same,Potency,[2],inactive
same,Potency,[3],inconclusive: 1 nM [cytotoxic]
same,Potency,[4],"inconclusive: 41.8 nM [rising, full curve, poor fit]"
same,Potency,[5],inactive
same,Potency,[6],"inconclusive: 83.3 nM [rising, full curve, poor fit]"
same,Potency,[7],"inconclusive: 209 nM [rising, full curve, poor fit]"
same,Potency,[8],inactive
same,Potency,[9],inactive
same,Potency,[10],inactive
same,Potency,[11],"inconclusive: 6.6 nM [rising, full curve, poor fit]"
same,Potency,[12],"inconclusive: 3 nM [rising, full curve, poor fit]"
same,Potency,[13],inactive
same,Potency,[14],inactive
CC1=C(O)C(=O)C=C2C1=CC=C1[C@@]2(C)CC[C@@]2(C)[C@@H]3C[C@](C)(C(=O)O)CC[C@]3(C)CC[C@]12C,Potency,[1],active: 833 nM
same,Potency,[15],active: 662 nM
same,Potency,[3],active: 743 nM
same,Potency,[4],active: 296 nM
same,Potency,[5],active: 296 nM
same,Potency,[16],active: 743 nM
same,Potency,[8],active: 590 nM
same,Potency,[10],active: 1480 nM
same,Potency,[12],active: 743 nM
same,Potency,[14],active: 833 nM
C[C@@H]1[C@H](O)[C@@H](C)C=CC=CCCC=CC=CC=CC=C[C@H](O[C@H]2O[C@@H](C)[C@H](O)[C@@H](N)[C@@H]2O)CC2O[C@](O)(C[C@@H](O)[C@H](O)CC[C@@H](O)C[C@@H](O)C[C@@H](O)CC(=O)O[C@H]1C)C[C@H](O)[C@H]2C(=O)O,Potency,[1],inactive
same,Potency,[2],inactive
same,Potency,[3],inactive
same,viability (% of DMSO),[4],inconclusive: 177% [cytotoxic]
same,Potency,[5],"inconclusive: 3720 nM [cytotoxic, full curve, poor fit]"
same,Potency,[16],"inconclusive: 9.3 nM [cytotoxic, full curve, poor fit]"
same,viability,[6],inactive: 120%
same,Potency,[7],inactive
same,Potency,[17],"inconclusive: 3.7 nM [rising, full curve, poor fit]"
same,Potency,[9],inactive
same,Potency,[10],"inconclusive: 2960 nM [cytotoxic, full curve, poor fit]"
same,Potency,[13],inconclusive: 1 nM [cytotoxic]
same,Potency,[18],inactive
O=C(O)CCCc1ccc(N(CCCl)CCCl)cc1,Potency,[1],"inconclusive: 1.2 nM [cytotoxic, full curve, poor fit]"
same,Potency,[2],"inconclusive: 2090 nM [rising, full curve, poor fit]"
same,Potency,[3],"inconclusive: 4.7 nM [cytotoxic, full curve, poor fit]"
same,Potency,[4],active: 4690 nM
same,Potency,[5],inactive
same,Potency,[16],"inconclusive: 296 nM [rising, full curve]"
same,Potency,[7],inactive
same,Potency,[9],"inconclusive: 10500 nM [cytotoxic, full curve, poor fit]"
same,Potency,[10],active: 18700 nM
same,Potency,[18],inactive
same,Potency,[14],"inconclusive: 29.6 nM [rising, full curve, poor fit]"
COc1ccc2c(c[n+](C)c3c4cc5c(cc4ccc23)OCO5)c1OC,Potency,[1],active: 14800 nM
same,Potency,[2],active: 4690 nM
same,Potency,[15],active: 4180 nM
same,Potency,[16],active: 9350 nM
same,Potency,[6],active: 5900 nM
same,Potency,[7],active: 5900 nM
same,Potency,[14],active: 2960 nM
C=C1C[C@H]2[C@H]3CCC(=O)[C@@]3(C)CC[C@@H]2[C@@]2(C)C=CC(=O)C=C12,Potency,[1],inactive
same,Potency,[2],"inconclusive: 6620 nM [cytotoxic, partial curve, poor fit]"
same,Potency,[3],"inconclusive: 37200 nM [cytotoxic, single point]"
same,Potency,[5],"inconclusive: 37200 nM [cytotoxic, single point]"
same,Potency,[16],"inconclusive: 20900 nM [cytotoxic, partial curve, poor fit]"
same,Potency,[6],"inconclusive: 7430 nM [cytotoxic, partial curve, poor fit]"
same,Potency,[7],active: 20900 nM
same,Potency,[17],"inconclusive: 23500 nM [cytotoxic, single point]"
same,Potency,[8],"inconclusive: 33200 nM [cytotoxic, single point]"
same,Potency,[9],"inconclusive: 37200 nM [cytotoxic, single point]"
same,Potency,[10],inconclusive: 1 nM
same,Potency,[11],"inconclusive: 20900 nM [cytotoxic, single point]"
same,Potency,[12],"inconclusive: 20900 nM [cytotoxic, partial curve, poor fit]"
same,Potency,[19],"inconclusive: 20900 nM [cytotoxic, partial curve]"
same,Potency,[14],inactive
CSCC[C@@H](NC(=O)[C@@H](Cc1ccccc1)NC(=O)CNC(=O)CNC(=O)[C@@H](N)Cc1ccc(O)cc1)C(=O)O,Potency,[1],inactive
same,Potency,[2],inactive
same,Potency,[3],inactive
same,Potency,[4],"inconclusive: 11.8 nM [rising, full curve, poor fit]"
same,Potency,[5],inactive
same,Potency,[16],inactive
same,Potency,[6],"inconclusive: 1050 nM [rising, full curve, poor fit]"
same,Potency,[7],"inconclusive: 418 nM [rising, full curve, poor fit]"
same,Potency,[8],inactive
same,Potency,[9],"inconclusive: 16600 nM [cytotoxic, partial curve, poor fit]"
same,Potency,[10],"inconclusive: 296 nM [rising, full curve, poor fit]"
same,Potency,[12],inactive
same,Potency,[13],"inconclusive: 187 nM [rising, full curve, poor fit]"
same,Potency,[19],inactive

# Part of the list above in another layout.
structure (smiles)	measurement	setting	value
C=C1C[C@H]2[C@H]3CCC(=O)[C@@]3(C)CC[C@@H]2[C@@]2(C)C=CC(=O)C=C12	Potency	[7]	active: 20900 nM
same	Potency	[17]	inconclusive: 23500 nM [cytotoxic, single point]
